Data on 56 compounds can be found in the supplement of paper PMC3682954.

In the test the test system is RAW 264.7. Briefly: HMGB1-induced TNF-alpha production relative to HMGB1-stimulated control; higher = more TNF-alpha secretion (less inhibition). The conditions noted are these: stimulus: HMGB1 5 ug/ml, 18 h.
Setting [1] is: compound concentration: 1 ug/ml.

Values joined by “and” are separate entries in the source; they are usually repeats but may differ in a detail not shown here. Identical values can stand only once. Counter-ions that a name gives are not always drawn. ± gives the standard deviation of the averaged measurements. Some of the results follow. Many values rest on one well or one pass, so single values are uncertain.

For `CS(=O)(=O)c1ccc(C2=C(c3ccccc3)C(=O)OC2)cc1`, the “HMGB1-induced TNF-alpha production” value (compound concentration: 3 uM) came to 101 ± 4%.

Turning to `CS(=O)(=O)c1ccc(C2=C(c3ccccc3)C(=O)OC2)cc1` [Rofecoxib], the “HMGB1-induced TNF-alpha production” value (compound concentration: 3 uM) was 82 ± 7%.

As to `Cn1c(=O)c2[nH]cnc2n(C)c1=O` [Aminophylline], under “compound concentration: 3 uM”, the “HMGB1-induced TNF-alpha production” value is 123 ± 8.4%.

As to `Cn1c(=O)c2[nH]cnc2n(C)c1=O` [Aminophylline ethylenediamine], the “HMGB1-induced TNF-alpha production” value (compound concentration: 3 uM) is 85%.

For `CN(C)CCC=C1c2ccccc2CCc2ccccc21`, under “compound concentration: 3 uM”, the “HMGB1-induced TNF-alpha production” value came to 79.8%.

On to `CN(C)CCC=C1c2ccccc2CCc2ccccc21` [Amitriptyline hydrochloride], for which the “HMGB1-induced TNF-alpha production” value (compound concentration: 3 uM) is 74.9%.

With `CN(C)CCC=C1c2ccccc2CCc2ccccc21` [Amitryptiline hydrochloride], the “HMGB1-induced TNF-alpha production” value (compound concentration: 3 uM) amounted to 73.9%.

Consider `Cc1ccnc2c1NC(=O)c1cccnc1N2C1CC1` [Viramune], for which the “HMGB1-induced TNF-alpha production” value (compound concentration: 3 uM) is 100%.

With `Cc1[nH]c(=O)c(C#N)cc1-c1ccncc1` [Milrinone], under “compound concentration: 3 uM”, the “HMGB1-induced TNF-alpha production” value is 115 ± 24%.

Turning to `Cc1[nH]c(=O)c(C#N)cc1-c1ccncc1`, for the setting “compound concentration: 3 uM”, the “HMGB1-induced TNF-alpha production” value came out at 121%.

As to `O=c1cccc2n1CC1CC2CN(CC(O)C=Nc2c3ccccc3nc3ccccc23)C1` (stereo unspecified), the “HMGB1-induced TNF-alpha production” value under setting [1] was determined as 51.1%.

`CCOc1ccc2oc(=O)c(-c3ccc(O)cc3)c(C)c2c1` [6-Ethoxy-3(4'-hydroxyphenyl)-4-methylcoumarin]: the “HMGB1-induced TNF-alpha production” value under setting [1] was 79.4%.

For the compound `O=C(Nc1ccccc1)c1ccccc1O`, where the note is “compound concentration: 3 uM”, the “HMGB1-induced TNF-alpha production” value was 72.8%.

Regarding `C=C1C(=O)[C@]23[C@H](CC[C@@H]1[C@@H]2O)[C@]12CO[C@@]3(O)[C@H](O)[C@H]1C(C)(C)CC[C@@H]2O`, the “HMGB1-induced TNF-alpha production” value (compound concentration: 3 uM) worked out at 20.6%.

Take `C=C1C[C@@]23CC[C@H]4[C@@](C)(CCC[C@@]4(C)C(=O)O[C@@H]4O[C@H](CO)[C@@H](O)[C@H](O)[C@H]4O)[C@@H]2CC[C@]1(O[C@@H]1O[C@H](CO)[C@@H](O)[C@H](O)[C@H]1O[C@@H]1O[C@H](CO)[C@@H](O)[C@H](O)[C@H]1O)C3` [Stevioside]: the “HMGB1-induced TNF-alpha production” value (compound concentration: 3 uM) came to 98.1%.

Regarding `OC[C@H]1O[C@@H](Oc2ccc3ccccc3c2)[C@H](O)[C@@H](O)[C@H]1O` [2-Naphthyl-beta-D-galactopyranoside], the “HMGB1-induced TNF-alpha production” value under setting [1] is 82%.

Consider `COCC1=C(C(=O)OC(C)OC(=O)OC(C)C)N2C(=O)[C@@H](NC(=O)/C(=N\OC)c3csc(N)n3)[C@H]2SC1` (stereo partly specified), for which the “HMGB1-induced TNF-alpha production” value (compound concentration: 3 uM) amounted to 100 ± 9.3%.

On to `COc1cc(-c2oc3ccccc3c(=O)c2O)cc(OC)c1OC` [3-Hydroxy-3',4',5'-trimethoxyflavone], for which, under setting [1], the “HMGB1-induced TNF-alpha production” value stood at 91.4%.

As for `CN(C)c1cc2c(Nc3ccc4c(cnn4Cc4ccccc4)c3)ncnc2cn1`, the “HMGB1-induced TNF-alpha production” value (compound concentration: 3 uM) amounted to 97.7%.

Consider `CCN(CC)CCOC(=O)C(c1ccccc1)C1CCCCC1` (stereo unspecified), for which, for the setting “compound concentration: 3 uM”, the “HMGB1-induced TNF-alpha production” value is 88.3%.

Regarding `CCN(CC)CCOC(=O)C(c1ccccc1)C1CCCCC1` (stereo unspecified) [Drofenine hydrochloride], the “HMGB1-induced TNF-alpha production” value (compound concentration: 3 uM) amounted to 67.5%.

On to `NC(=O)C(=O)O` [Sodium Oxamate], for which the “HMGB1-induced TNF-alpha production” value (compound concentration: 3 uM) was found to be 103%.

`COc1cc(Cc2cnc(N)nc2N)cc(OC)c1OC` [Trimethoprim]: the “HMGB1-induced TNF-alpha production” value (compound concentration: 3 uM) is 80.2 ± 5.6%.

`COc1cc(Cc2cnc(N)nc2N)cc(OC)c1OC`: the “HMGB1-induced TNF-alpha production” value (compound concentration: 3 uM) turned out to be 89.9%.

Turning to `CC(C)(C)OC(=O)c1cc2cc3c4c(c2oc1=O)CCCN4CCC3` [Coumarin 338], under setting [1], the “HMGB1-induced TNF-alpha production” value was found to be 89.4%.

Consider `O=C(CCCN1CCC(O)(c2ccc(Br)cc2)CC1)c1ccc(F)cc1` [Bromperidol], for which the “HMGB1-induced TNF-alpha production” value (compound concentration: 3 uM) was 45.1%.

On to `O=C(CCCN1CCC(O)(c2ccc(Br)cc2)CC1)c1ccc(F)cc1`, for which the “HMGB1-induced TNF-alpha production” value (compound concentration: 3 uM) was 72.5%.

In the case of `CNCC[C@H](Oc1cccc2ccccc12)c1cccs1` [Duloxetine], under “compound concentration: 3 uM”, the “HMGB1-induced TNF-alpha production” value was determined as 100%.

For the compound `CNCC[C@H](Oc1cccc2ccccc12)c1cccs1`, the “HMGB1-induced TNF-alpha production” value (compound concentration: 3 uM) is 86.2% and 109%.

`CC1CCC(C(C)C)C(O)C1` (stereo unspecified): the “HMGB1-induced TNF-alpha production” value (compound concentration: 3 uM) worked out at 117%.

With `CCc1cc(=O)oc2cc(OC)c(OC)cc12` [6,7-Dimethoxy-4-ethylcoumarin], under setting [1], the “HMGB1-induced TNF-alpha production” value is 90%.

In the case of `CC(=O)c1ccc2c(c1)N(CCCN1CCC(CCO)CC1)c1ccccc1S2` [Piperacetazine], the “HMGB1-induced TNF-alpha production” value (compound concentration: 3 uM) was 90%.

For the compound `CO[C@@]1(NC(=O)Cc2cccs2)C(=O)N2C(C(=O)O)=C(COC(N)=O)CS[C@@H]21`, the “HMGB1-induced TNF-alpha production” value (compound concentration: 3 uM) turned out to be 85.2%.

As to `CO[C@@]1(NC(=O)Cc2cccs2)C(=O)N2C(C(=O)O)=C(COC(N)=O)CS[C@@H]21` [Cefoxitin sodium salt], the “HMGB1-induced TNF-alpha production” value (compound concentration: 3 uM) was 109%.

As to `N#CC(=C(/N)Sc1ccccc1N)/C(C#N)=C(/N)Sc1ccccc1N`, under “compound concentration: 3 uM”, the “HMGB1-induced TNF-alpha production” value worked out at 20.4%.

For the compound `NS(=O)(=O)c1cccc2c1c([N+](=O)[O-])cc1nc(O)c(O)nc12` [NBQX disodium], the “HMGB1-induced TNF-alpha production” value (compound concentration: 3 uM) worked out at 105%.

As for `NC(N)=NCc1cccc(I)c1` [m-Iodobenzylguanidine hemisulfate], the “HMGB1-induced TNF-alpha production” value (compound concentration: 3 uM) amounted to 108%.

Take `COc1cc2c(cc1OC)C(=O)C(CC1CCN(Cc3ccccc3)CC1)C2` (stereo unspecified) [Donepezil]: where the note is “compound concentration: 3 uM”, the “HMGB1-induced TNF-alpha production” value turned out to be 101%.

Take `COc1cc2c(cc1OC)C(=O)C(CC1CCN(Cc3ccccc3)CC1)C2` (stereo unspecified): the “HMGB1-induced TNF-alpha production” value (compound concentration: 3 uM) amounted to 85.2%.

For the compound `CCCCC(CC)CN1CN(CC(CC)CCCC)CC(C)(N)C1` (stereo unspecified) [Hexetidine], the “HMGB1-induced TNF-alpha production” value (compound concentration: 3 uM) was found to be 58.6%.

Consider `CCCCC(CC)CN1CN(CC(CC)CCCC)CC(C)(N)C1` (stereo unspecified), for which the “HMGB1-induced TNF-alpha production” value (compound concentration: 3 uM) came to 79%.

Consider `CC(=O)NCCc1c[nH]c2ccc(O)cc12` [N-Acetyl-5-hydroxytryptamine], for which the “HMGB1-induced TNF-alpha production” value (compound concentration: 3 uM) worked out at 87.8%.

As for `COc1cc(OC)c(C(=O)CCCN2CCCC2)c(OC)c1`, under “compound concentration: 3 uM”, the “HMGB1-induced TNF-alpha production” value was 104 ± 26%.

With `COc1cc(OC)c(C(=O)CCCN2CCCC2)c(OC)c1` [Buflomedil hydrochloride], the “HMGB1-induced TNF-alpha production” value (compound concentration: 3 uM) worked out at 70.6%.

For `O=c1ccc2ccc(O)c(O)c2o1` [Daphnetin], the “HMGB1-induced TNF-alpha production” value (compound concentration: 3 uM) came to 91.7%.

Regarding `N#CC(c1ccc(Cl)cc1)c1c(Cl)cc(-n2ncc(=O)[nH]c2=O)cc1Cl` (stereo unspecified) [Diclazuril], the “HMGB1-induced TNF-alpha production” value (compound concentration: 3 uM) was 85.9 ± 3.5%.

As for `O.O.O.O.O=C([O-])CC(O)(CC(=O)[O-])C(=O)[O-].[Li+].[Li+].[Li+]`, where the note is “compound concentration: 3 uM”, the “HMGB1-induced TNF-alpha production” value amounted to 90%.

As for `Cc1cc2c(C(C)C)c(O)c(O)c(C=Nc3ccc(O)c(Cl)c3)c2c(O)c1-c1c(C)cc2c(C(C)C)c(O)c(O)c(C=Nc3ccc(O)c(Cl)c3)c2c1O`, the “HMGB1-induced TNF-alpha production” value under setting [1] stood at 46.6%.

Consider `CCN1C(=O)NC(c2ccccc2)C1=O` (stereo unspecified) [Ethotoin], for which the “HMGB1-induced TNF-alpha production” value (compound concentration: 3 uM) amounted to 119%.

Regarding `COc1ccccc1N1CCN(CC(O)COc2cccc3ccccc23)CC1` (stereo unspecified), the “HMGB1-induced TNF-alpha production” value (compound concentration: 3 uM) was 84% and 73%.

In the case of `COc1ccccc1N1CCN(CC(O)COc2cccc3ccccc23)CC1` (stereo unspecified) [Naftopidil dihydrochloride], the “HMGB1-induced TNF-alpha production” value (compound concentration: 3 uM) worked out at 86.4 ± 6.1%.

For `COc1ccccc1N1CCN(CC(O)COc2cccc3ccccc23)CC1` (stereo unspecified) [Naftopidil], under “compound concentration: 3 uM”, the “HMGB1-induced TNF-alpha production” value is 76.4%.

With `CN1CCCC(CC2c3ccccc3Sc3ccccc32)C1` (stereo unspecified) [Metixene hydrochloride], where the note is “compound concentration: 3 uM”, the “HMGB1-induced TNF-alpha production” value was 58.5%.

As for `CN1CCC(=C2c3ccccc3CC(=O)c3sccc32)CC1` [Ketotifen], the “HMGB1-induced TNF-alpha production” value (compound concentration: 3 uM) is 85.1%.

On to `CN1CCC(=C2c3ccccc3CC(=O)c3sccc32)CC1`, for which the “HMGB1-induced TNF-alpha production” value (compound concentration: 3 uM) worked out at 96.7 ± 13%.

In the case of `CN1CCC(=C2c3ccccc3CC(=O)c3sccc32)CC1` [Ketotifen fumarate], the “HMGB1-induced TNF-alpha production” value (compound concentration: 3 uM) was determined as 87.7 ± 7.6%.
